{
  "sequences": {"note": "By UniProt entry, the sequences of proteins in these tests, tags left out. Where a name states a change or a piece, a line headed by the entry shows the natural chain unless it says otherwise.", "UniProt P11473": "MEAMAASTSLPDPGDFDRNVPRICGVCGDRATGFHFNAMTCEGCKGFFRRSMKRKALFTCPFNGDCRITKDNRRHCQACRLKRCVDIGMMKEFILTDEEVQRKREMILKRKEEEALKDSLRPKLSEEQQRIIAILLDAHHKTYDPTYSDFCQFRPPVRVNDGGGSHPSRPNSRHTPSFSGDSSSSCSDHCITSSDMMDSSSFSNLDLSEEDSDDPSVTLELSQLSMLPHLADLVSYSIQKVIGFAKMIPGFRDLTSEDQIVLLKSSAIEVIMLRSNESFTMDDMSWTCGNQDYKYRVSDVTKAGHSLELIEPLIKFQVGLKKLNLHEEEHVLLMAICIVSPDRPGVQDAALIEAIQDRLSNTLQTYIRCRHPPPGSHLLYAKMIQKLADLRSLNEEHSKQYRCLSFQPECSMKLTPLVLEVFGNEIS"},
  "source": "PubChem BioAssay AID504847",
  "about": "(National Center for Advancing Translational Sciences (NCATS), 2011)",
  "note": "Among all 400,000 compounds or so, about 3,700 (0.93%) were called active. Inconclusive results, whose numbers are uncertain, are shown with a selection of clear calls. Calls come from the whole dose curve; as a rule, active = well fitted inhibition curve with a large enough effect; inconclusive = small, poorly fitted or top-dose-only effect, or another doubt; inactive = no such curve, though single readings can be large or run the other way. A potency beside an inconclusive call is a rough fit, not a confirmed value. % is set by controls: 0 for no effect and ±100 for the full control effect; potency is the fitted concentration of half-maximal effect.",
  "data": [
    {"target": "Vitamin D3 receptor (Homo sapiens) (UniProt P11473)", "assay": "Inhibitors of the vitamin D receptor (VDR): qHTS", "settings": "VDR-SRC2-3 peptide fluorescence polarization, 2 h; max response, negative = inhibition: active compounds read low", "method_in_brief": "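Reagent solutions, kept cold and dark, are dispensed first; compounds are then pinned in at 23 nl, plates briefly spun, and incubated 2 h at ambient temperature. Inhibition of VDR–SRC2-3 peptide binding is read by fluorescence polarization.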", "values": [
      {"compound": "CCCCNc1ncnc2oc(-c3ccco3)c(-c3ccco3)c12", "Potency": "inconclusive: 79.4 µM [inhibitor, partial curve]"},
      {"compound": "O=[N+]([O-])c1cccc(NNS(=O)(=O)c2ccccc2F)c1", "Potency": "inconclusive: 79.4 µM [inhibitor, single point]"},
      {"compound": "CCOC(=O)c1c(NC(=O)CC2Sc3ccc(C(F)(F)F)cc3NC2=O)sc(C)c1C", "note": "(stereo not given)", "Potency": "inconclusive: 89.1 µM [inhibitor, single point]"},
      {"compound": "CCc1ccc(NC(=O)CSc2nc(-c3ccccc3)c(C#N)c(=O)[nH]2)cc1", "max response, negative = inhibition": "inactive: 18%"},
      {"compound": "CCCC(=O)N(Cc1cc(=O)[nH]c2ccccc12)c1ccc(C)cc1", "Potency": "inconclusive: 50.1 µM [inhibitor, partial curve]"},
      {"compound": "O=C1C(Nc2ccccc2)=C(N2CCCCC2)C(=O)c2ccccc21", "Potency": "inconclusive: 70.8 µM [inhibitor, partial curve]"},
      {"compound": "Cc1cc(NC(=O)CSc2nc3c(C)cccc3cc2C#N)no1", "max response, negative = inhibition": "inactive: 12.8%"},
      {"compound": "Cc1cc(C)c(NC(=O)c2c[nH]c(=S)n2-c2ccc(F)cc2)c(C)c1", "max response, negative = inhibition": "inactive: -6.6%"},
      {"compound": "FC(F)(F)c1ccc(-c2nc(=S)[nH][nH]2)cc1", "Potency": "inconclusive: 89.1 µM [inhibitor, partial curve, poor fit]"},
      {"compound": "O=c1cc(NC2CCCCC2)c2ccccc2o1", "max response, negative = inhibition": "inactive: -9.84%"},
      {"compound": "COc1cc(C)c(CC/C(C)=C/C=C/C(C)=O)c(C)c1C", "Potency": "active: 79.4 µM"},
      {"compound": "CCCC(=O)Nc1nnc(S(=O)(=O)N(C)Cc2ccco2)s1", "Potency": "inconclusive: 63.1 µM [inhibitor, partial curve, poor fit]"},
      {"compound": "COc1ccc(C(=O)/C=C/c2ccc(OC)c(CN3CCOCC3)c2)cc1", "Potency": "inconclusive: 89.1 µM [inhibitor, single point]"},
      {"compound": "Cc1ccc(C)c(-c2cc(C(=O)Nc3sc(C)c(C)c3C(N)=O)c3ccccc3n2)c1", "max response, negative = inhibition": "inactive: -1.24%"},
      {"compound": "CC(=O)Nc1ccc(NS(=O)(=O)c2ccc3ccccc3c2)cc1", "Potency": "inconclusive: 28.2 µM [inhibitor, single point]"},
      {"compound": "O=C(COc1ccc(Cl)cc1[N+](=O)[O-])N1CCCCCC1", "max response, negative = inhibition": "inactive: 2.02%"},
      {"compound": "CCOC(=O)c1sc(NC(=O)c2nc3ncccn3n2)c(C(=O)OC)c1C", "max response, negative = inhibition": "inactive: -2.27%"},
      {"compound": "O=C(Nc1ccc2oc(-c3cccnc3)nc2c1)c1ccc(-c2ccc(Cl)cc2)o1", "Potency": "inconclusive: 70.8 µM [inhibitor, single point]"},
      {"compound": "CN(C)S(=O)(=O)c1ccc(NC(=O)CNc2cc(S(=O)(=O)N3CCCC3)ccc2OCC(F)(F)F)cc1", "Potency": "inconclusive: 89.1 µM [inhibitor, single point]"},
      {"compound": "Cc1[nH][nH]c(=O)c1[C@@H](c1ccccc1[N+](=O)[O-])C(C#N)C#N", "Potency": "inconclusive: 89.1 µM [inhibitor, single point]"},
      {"compound": "CCc1ccc(/C=C/C(=O)c2ccc(S(=O)(=O)N(C)C)cc2)cc1", "Potency": "inconclusive: 17.8 µM [inhibitor, full curve]"},
      {"compound": "COc1cccc(CC2(CO)CCCN(Cc3ccc(CO)o3)C2)c1", "note": "(stereo not given)", "max response, negative = inhibition": "inactive: 4.13%"},
      {"compound": "Cc1cc(SCC(=O)c2cccc([N+](=O)[O-])c2)nc(=O)[nH]1", "Potency": "inconclusive: 56.2 µM [inhibitor, partial curve, poor fit]"},
      {"compound": "CNC(=O)COc1ccc(S(=O)(=O)N2CCCC2)cc1", "Potency": "active: 50.1 µM"},
      {"compound": "Cc1ccc(NC(=O)CSc2nnc(NC(=O)C3CC3)s2)cc1C", "Potency": "inconclusive: 79.4 µM [inhibitor, partial curve, poor fit]"},
      {"compound": "COc1ccc(OCc2n[nH]c(=S)n2N)cc1", "Potency": "active: 35.5 µM"},
      {"compound": "CCC(C)NC(=O)c1ccc2c(c1)S(=O)(=O)c1ccccc1C2=O", "note": "(stereo not given)", "Potency": "inconclusive: 89.1 µM [inhibitor, single point]"},
      {"compound": "Cc1ccc(OCC(=O)N/N=C/C=C/c2ccco2)cc1", "Potency": "inconclusive: 35.5 µM [inhibitor, partial curve]"},
      {"compound": "Cc1ccc2[nH]c(=O)c(CN(Cc3ccco3)Cc3nnnn3Cc3ccccc3)cc2c1", "Potency": "inconclusive: 70.8 µM [inhibitor, single point]"},
      {"compound": "COc1cc(C2Nc3ccccc3C(=O)N2NS(C)(=O)=O)c([N+](=O)[O-])cc1OC", "note": "(stereo not given)", "Potency": "inconclusive: 50.1 µM [inhibitor, single point]"},
      {"compound": "O=C1C=C(NC2=CC3OC(c4ccccc4)OCC3OC2=O)CCC1", "note": "(stereo not given)", "Potency": "active: 79.4 µM"},
      {"compound": "CCCn1c(CCC(=O)Nc2cc(Cl)c(OC)cc2OC)nc2cccnc21", "max response, negative = inhibition": "inactive: -20%"},
      {"compound": "O=C(NCc1ccco1)C1CCN(C(=O)c2ccc([N+](=O)[O-])cc2)CC1", "max response, negative = inhibition": "inactive: -11.8%"},
      {"compound": "CCOC(=O)N1CCN(C(=O)c2ccc(CS(=O)(=O)c3ccc(OC)cc3)o2)CC1", "Potency": "inconclusive: 89.1 µM [inhibitor, single point]"},
      {"compound": "Cc1cccc(OCCN2C(=O)C(=O)c3cccc(C)c32)c1", "Potency": "inconclusive: 89.1 µM [inhibitor, single point]"},
      {"compound": "COc1ccc(C(=O)NC(NC(=S)Nc2ccc(S(N)(=O)=O)cc2)C(Cl)(Cl)Cl)cc1", "note": "(stereo not given)", "Potency": "inconclusive: 100 µM [inhibitor, partial curve, poor fit]"},
      {"compound": "CCCOc1cc2c(C#N)c(N3CCCC3)nc(N)c2c(N)n1", "Potency": "inconclusive: 100 µM [inhibitor, partial curve, poor fit]"},
      {"compound": "CCc1cc(=O)oc2cc(OCC(=O)NCc3ccccn3)ccc12", "Potency": "inconclusive: 15.8 µM [inhibitor, partial curve, poor fit]"},
      {"compound": "CC(=O)Nc1ccc(S(=O)(=O)Nc2nc3ccccc3nc2N2CCOCC2)cc1", "Potency": "inconclusive: 100 µM [inhibitor, single point]"},
      {"compound": "O=C1CC(=O)Nc2cc(S(=O)(=O)N3CCOc4ccccc43)ccc2N1", "Potency": "inconclusive: 100 µM [inhibitor, partial curve, poor fit]"},
      {"compound": "O=C(CN(C(=O)c1csnn1)c1ccccc1)NCCc1ccccc1", "max response, negative = inhibition": "inactive: -9.05%"},
      {"compound": "COc1ccc(C(=O)c2ccc(OC)cc2OC)cc1", "max response, negative = inhibition": "inactive: 11.1%"},
      {"compound": "Cc1ccc(C(=O)CSc2nc(N)cc(=O)[nH]2)cc1", "max response, negative = inhibition": "inactive: 9.34%"},
      {"compound": "Cc1cc2nc3c(=O)[nH]c(=O)[nH]c3nc2c([N+](=O)[O-])c1N", "max response, negative = inhibition": "inactive: -23.8%"},
      {"compound": "CC(/C=C1\\SC(=S)N(c2ccc(C(=O)O)cc2)C1=O)=C\\c1ccccc1", "Potency": "active: 89.1 µM"},
      {"compound": "O=c1c(O)c(-c2ccccc2)oc2ccc3occc3c12", "Potency": "inconclusive: 35.5 µM [inhibitor, partial curve, poor fit]"},
      {"compound": "CC1=CC(C)(C)N2C(=O)C(=Nc3ccc(O)cc3)c3cccc1c32", "Potency": "inconclusive: 28.2 µM [inhibitor, partial curve, poor fit]"},
      {"compound": "COc1ccc(CCC(=O)OCC(=O)Nc2c(C)n(C)n(-c3ccccc3)c2=O)cc1", "max response, negative = inhibition": "inactive: -5.3%"},
      {"compound": "N#Cc1c(-c2ccccc2)cc(-c2ccccc2)nc1SCC(=O)NCC(=O)O", "Potency": "inconclusive: 70.8 µM [inhibitor, partial curve, poor fit]"},
      {"compound": "CC(C)(C)C1CCc2c(sc(NC(=O)c3cccc(Cl)c3)c2C(N)=O)C1", "note": "(stereo not given)", "Potency": "inconclusive: 79.4 µM [inhibitor, partial curve, poor fit]"},
      {"compound": "CCC(=O)Nc1ccc(N2CCOCC2)c(S(=O)(=O)Nc2ccc(Cl)cc2)c1", "Potency": "inconclusive: 56.2 µM [inhibitor, partial curve, poor fit]"},
      {"compound": "COc1ccc(/C=N/N2C(=O)CSC2=S)cc1", "Potency": "inconclusive: 4.47 µM [inhibitor, partial curve, poor fit]"},
      {"compound": "Cc1cc(OC(=O)c2c(C)cc(OC(=O)c3c(C)cc(O)cc3O)cc2O)cc(O)c1C(=O)O", "Potency": "inconclusive: 79.4 µM [inhibitor, partial curve, poor fit]"},
      {"compound": "COc1ccc2ccc(OC)c(/C=N/n3cnnc3)c2c1", "Potency": "inconclusive: 79.4 µM [inhibitor, partial curve, poor fit]"},
      {"compound": "Cc1cc(-c2ccccc2)cc(=O)[nH]1", "Potency": "inconclusive: 70.8 µM [inhibitor, single point]"},
      {"compound": "CCC(=O)Oc1c(Sc2ccc(Cl)cc2)c(C)nn1C(C)(C)C", "Potency": "inconclusive: 10 µM [inhibitor, full curve, poor fit]"},
      {"compound": "CC1CCN(S(=O)(=O)N2CCC(C(=O)NCCc3ccccc3)CC2)CC1", "Potency": "inconclusive: 89.1 µM [inhibitor, single point]"},
      {"compound": "CN(Cc1cccnc1)Cc1cn(C)nc1-c1ccc(Oc2ccccc2)cc1", "max response, negative = inhibition": "inactive: 8.97%"},
      {"compound": "Nc1c(-c2ccccc2)c(CSc2nc3ccccc3[nH]2)nn1-c1ccc(C(=O)O)cc1", "Potency": "inconclusive: 28.2 µM [inhibitor, partial curve, poor fit]"},
      {"compound": "CCOC(=O)C1=C(C)Nc2ccc(C)cc2S1", "Potency": "inconclusive: 89.1 µM [inhibitor, partial curve, poor fit]"},
      {"compound": "O=C(CBr)c1ccc([N+](=O)[O-])c(CS(=O)(=O)c2ccc(Cl)cc2)c1", "Potency": "active: 35.5 µM"},
      {"compound": "O=C(NC1CCCC1)C(c1ccccn1)N(C(=O)c1csnn1)C1CCCCC1", "note": "(stereo not given)", "Potency": "inconclusive: 56.2 µM [inhibitor, partial curve, poor fit]"},
      {"compound": "O=C(CCCC(=O)N(c1cccc(F)c1)C(C(=O)NC1CCCC1)c1ccc(O)cc1)Nc1ccccn1", "note": "(stereo not given)", "Potency": "inconclusive: 79.4 µM [inhibitor, partial curve, poor fit]"},
      {"compound": "COc1ccccc1C1C2=C(N=c3s/c(=C/c4cccc(OCC(=O)O)c4)c(=O)n31)c1ccccc1CC2", "note": "(stereo not given)", "Potency": "inconclusive: 100 µM [inhibitor, single point]"},
      {"compound": "Cc1ccc(C(=O)NCC(=O)NCc2cc(=O)n(C)c(=O)n2C)cc1", "Potency": "inconclusive: 39.8 µM [inhibitor, partial curve, poor fit]"}
    ]}
  ]
}
